Experimental data taken from PMC5467170.

Amino acid sequences for entries named in this document (tags omitted). A change or cut given only in a name is not applied to a line headed by its entry.
UniProt Q8WYQ3: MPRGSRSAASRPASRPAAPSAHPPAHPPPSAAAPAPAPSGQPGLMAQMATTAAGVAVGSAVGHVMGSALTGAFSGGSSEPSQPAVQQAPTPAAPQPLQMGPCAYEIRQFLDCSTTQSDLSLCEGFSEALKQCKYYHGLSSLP
UniProt Q13148: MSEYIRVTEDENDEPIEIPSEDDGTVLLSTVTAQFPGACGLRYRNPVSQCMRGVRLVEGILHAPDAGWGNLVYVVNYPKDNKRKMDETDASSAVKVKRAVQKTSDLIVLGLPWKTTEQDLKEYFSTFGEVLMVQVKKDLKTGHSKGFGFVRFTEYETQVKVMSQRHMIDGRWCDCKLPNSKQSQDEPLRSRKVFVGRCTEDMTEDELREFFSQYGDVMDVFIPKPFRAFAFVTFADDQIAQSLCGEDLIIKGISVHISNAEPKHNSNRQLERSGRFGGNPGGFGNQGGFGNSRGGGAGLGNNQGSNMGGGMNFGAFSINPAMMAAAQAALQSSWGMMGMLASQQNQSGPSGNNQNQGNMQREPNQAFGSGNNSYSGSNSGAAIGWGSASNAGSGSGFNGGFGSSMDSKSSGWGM

Columns and labels:
[1] = biological target: endogenous CHCHD10 (coiled-coil-helix-coiled-coil-helix domain containing 10) (UniProt Q8WYQ3); assay: co-IP; endogenous proteins; immune complexes of CHCHD10 or of TDP-43, IgG beads alone as control; cells lysed in NP-40 lysis buffer (50 mM Tris pH 7.4, 150 mM NaCl, 2 mM EDTA, 1% NP-40)
[2] = biological target: human Flag-CHCHD10 R15L (human) (UniProt Q8WYQ3); assay: co-IP; cells (HT22 in Fig. 5a,c) transfected with/without TDP-43-tomato and Flag-CHCHD10 variants; lysates precipitated with Flag (M2) antibody and immunoblotted; NP-40 lysis buffer
[3] = biological target: human Flag-CHCHD10 S59L (human) (UniProt Q8WYQ3); assay: as above
[4] = biological target: human Flag-CHCHD10 wild type (human) (UniProt Q8WYQ3); assay: as above
[5] = biological target: human Flag-CHCHD10 Δ119–142 (human) (UniProt Q8WYQ3); assay: as above
[6] = biological target: human Flag-CHCHD10 Δ1–15 (human) (UniProt Q8WYQ3); assay: as above

binding [1]	binding [2]	binding [3]	binding [4]	binding [5]	binding [6]	Substance
binds						endogenous TDP-43 (TAR DNA-binding protein 43) (from UniProt Q13148 1-414)
	binds	binds	binds	binds	no binding	TDP-43-tomato (wtTDP43tdTomatoHA) (from UniProt Q13148 1-414)

No constants are given. Whether binding was seen depends on the method and setting. Binding seen in cells or lysates may run through a third protein. For part of these data: Binding can be weak; no strength is given.
